# Laboratory results taken from PubChem BioAssay AID1487 (National Center for Advancing Translational Sciences (NCATS), 2009).
# This is one part of the list. These are further read-outs of the screen, such as a control signal, another cell line or another target. No call is given for them. The list favours compounds with an active or inconclusive main result. Words in brackets tell the shape of the fitted curve; partial curves, single points and poor fits give uncertain potencies.
# Test: qHTS Assay for Modulators of Lamin A Splicing
# Conditions: HeLa LMNA splicing GFP/RFP minigene ratio, 48 h
# Procedure, shortened: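 S3 HeLa cells stably expressing lamin A-EGFP splicing minigene plus DsRed2, 600 cells/well, 48 h compound exposure at 37C. Laser-scanning cytometry; analysed as GFP (500-530 nm)/RFP (575-640 nm) total intensity ratio; 0.5% DMSO vehicle.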
# [1] = measured here: RFP viability control channel
# [2] = measured here: GFP splicing reporter channel
Compound,AC50 [1],AC50 [2]
COc1ccc(-n2c(C)cc(/C=C3\C(=O)NN(c4ccccc4)C3=O)c2C)cc1,"14.1 µM [rising, single point]",
COc1ccc(N(C(=O)COc2ccc(C)cc2)S(=O)(=O)c2ccc(C)cc2)cc1,"8.91 µM [rising, partial curve]",
COc1ccc(C(=O)Nc2ccc(C3(C#N)CCCC3)cc2)cc1,"0.501 µM [falling, full curve, poor fit]","0.562 µM [falling, full curve, poor fit]"
Cc1cccc(CSCc2ccc(C(=O)NCCc3ccccc3)o2)c1,"0.112 µM [falling, full curve]","0.1 µM [falling, full curve]"
CCc1ccc(NC(=O)N(CCCN2CCOCC2)C(C)c2cc3cccc(OC)c3o2)cc1 (configuration not stated),"5.62 µM [rising, full curve]",
Cn1c(N)c(C(=O)COC(=O)c2ccc(Cl)nc2)c(=O)n(C)c1=O,"7.94 µM [falling, partial curve]","20 µM [falling, partial curve]"
CSCc1ccc(C(=O)Nc2cc(C)cc(C)c2)cc1,"35.5 µM [rising, single point]",
COc1ccc(CNC(=O)c2cccnc2Sc2ccc(C)c(C)c2)cc1,"0.0224 µM [falling, partial curve, poor fit]","0.0126 µM [falling, full curve, poor fit]"
CN(Cc1c(C(=O)N(C)Cc2ccccc2)nc2ccccn12)CC1Cc2ccccc2O1 (configuration not stated),"2.82 µM [rising, partial curve, poor fit]","2.24 µM [rising, partial curve, poor fit]"
CS(=O)(=O)n1nc(-c2ccc(Cl)cc2)nc1SCc1ccccc1,"31.6 µM [rising, single point]",
CCOc1cc(-c2ccc(OC(=O)c3ccc(C)cc3)c(OC)c2)cc(=O)c2c(C)oc(C)c12,,"0.282 µM [falling, full curve, poor fit]"
COc1ccc(CC(=O)Nc2ccc(S(=O)(=O)NCC3CCCO3)cc2)cc1 (configuration not stated),"10 µM [rising, partial curve]",
COc1ccc(NC(=O)Cn2ncc(Cl)c(Cl)c2=O)cc1S(=O)(=O)N1CCOCC1,"35.5 µM [rising, single point]",
CCCN(CCC)C(=O)CSc1nc2n[nH]c(C)c2c(=N)n1-c1ccc(OC)cc1,"12.6 µM [rising, single point]","11.2 µM [rising, single point]"
Cc1cc(NC(=O)c2ccc(N(C)S(=O)(=O)c3ccccc3)cc2)no1,"15.8 µM [rising, single point]",
CCOc1cc(C(=O)Nc2ccc(-c3nc4ccccc4s3)cc2Cl)cc(OCC)c1OCC,,"0.794 µM [falling, full curve, poor fit]"
CCOc1ccc(NC(=O)CSc2nc3ccccc3c(=O)n2CCNC(C)=O)cc1,"2 µM [falling, full curve, poor fit]","1.41 µM [falling, full curve, poor fit]"
COc1cccc(NS(=O)(=O)c2ccc3[nH]cc(C(=O)NCCC(C)C)c(=O)c3c2)c1,"17.8 µM [falling, partial curve]",
Cc1cc(C)c(-c2csc(NC(=O)c3n[nH]c(=O)c4ccccc34)n2)c(C)c1,"17.8 µM [rising, partial curve]",
Cc1ccc(CNC(=O)c2c(C)oc3nc(C)nc(N4CCOCC4)c23)cc1,"0.00631 µM [rising, full curve, poor fit]",
Cc1nn(C)c(C)c1N1C(=O)c2cccc3c(Br)ccc(c23)C1=O,"11.2 µM [rising, partial curve]",
O=C(CN1C2=NCCCN2c2ccccc21)c1ccc([N+](=O)[O-])cc1,,"0.0224 µM [falling, full curve, poor fit]"
COc1ccccc1N1C(=O)CC1(C#N)c1ccc(OCc2ccccc2)cc1 (configuration not stated),"20 µM [rising, partial curve]","10 µM [rising, partial curve, poor fit]"
CCCS(=O)(=O)N1CCC(C(=O)NCc2ccc(F)cc2)CC1,"2.82 µM [falling, partial curve, poor fit]",
CSc1cc(-c2ccc(Cl)cc2)c(C(=O)NN)s1,,"25.1 µM [falling, single point]"
Nc1c(N2CCN(c3ccccc3)CC2)c2ccccc2oc1=O,"35.5 µM [rising, single point]",
CCOC(=O)c1[nH]c2ccccc2c1NC(=O)Nc1ccc(OC)cc1,"3.16 µM [rising, partial curve]",

Compound,AC50 [1],AC50 [2]
Cn1c(O)c(N=NC(=O)c2cc(-c3cccs3)nc3ccccc23)c2ccccc21,"0.0794 µM [rising, full curve, poor fit]",
Cc1cccc(NC(=O)c2ccc(N3CCOCC3)c([N+](=O)[O-])c2)n1,,"25.1 µM [falling, single point]"
CC(O/N=C/c1ccc(OC(F)F)cc1)C(=O)Nc1cccc(S(=O)(=O)N2CCOCC2)c1 (configuration not stated),"35.5 µM [rising, single point]",
COC(=O)c1c(NC(=S)NN2CCN(C)CC2)sc2c1CCC(C)C2 (configuration not stated),"35.5 µM [falling, single point]","35.5 µM [falling, single point]"
CCNc1ncc2nc(-c3cn(C)c4ccccc34)c(=O)n(Cc3cccc(OC)c3)c2n1,,"0.794 µM [falling, full curve]"
CCc1nnc(NC(=O)CSc2nnc(C3CCCCC3)n2-c2ccccc2)s1,,"12.6 µM [rising, partial curve]"
CC1(C)CC(=O)C(C=Nc2ccc(C(=O)c3ccccc3)cc2N=CC2=C(O)CC(C)(C)CC2=O)=C(O)C1,"1.78 µM [falling, partial curve, poor fit]","39.8 µM [falling, partial curve, poor fit]"
Cc1ccc(NC(=O)CSc2nc(NS(=O)(=O)c3ccc(C)cc3)cc(=O)[nH]2)cc1,"17.8 µM [falling, single point]",
Clc1ccc(-c2noc(CSc3nnc(Cc4cccs4)n3-c3ccccc3)n2)cc1,"35.5 µM [rising, single point]",
CCN(CC(=O)NCc1cccs1)c1nnnn1-c1ccccc1,"35.5 µM [rising, single point]",
CCCOc1ccc(C(CC(=O)O)NC(=O)c2sc3ccccc3c2Cl)cc1 (configuration not stated),"35.5 µM [falling, single point]",
CCCCn1cnc2cc(C)c(C)cc21,"0.00355 µM [rising, full curve, poor fit]",
COc1cccc(C(=O)N2CCN(Cc3cc(Br)ccc3OC)CC2)c1,"35.5 µM [rising, single point]",
CC1(C)CC(=O)C2=C(C1)Oc1nc3ccccc3cc1C2C(C#N)C#N (configuration not stated),"3.98 µM [falling, single point]","15.8 µM [falling, single point]"
O=c1c(-c2ccc(F)cc2)nc2cncnc2n1Cc1ccccc1,"35.5 µM [falling, single point]","2.51 µM [falling, partial curve]"
O=C(NCCC1=CCCCC1)C1CCCN(S(=O)(=O)c2ccccc2)C1 (configuration not stated),"14.1 µM [rising, partial curve]","14.1 µM [rising, single point]"
O=C(OCC(=O)N1CCc2ccccc2C1)c1ccc(N2CCOCC2)c([N+](=O)[O-])c1,"35.5 µM [rising, single point]",
O=[N+]([O-])c1ccc(C(=S)N2CCN(c3ccc(F)cc3)CC2)cc1,"1.12 µM [falling, full curve, poor fit]","14.1 µM [falling, partial curve, poor fit]"
O=C(Nc1cccc2ccccc12)OC1C=CS(=O)(=O)C1 (configuration not stated),"11.2 µM [rising, partial curve]",
CC(C)(C)c1ccc(S(=O)(=O)N2CCSC2)cc1,"12.6 µM [rising, partial curve]","22.4 µM [rising, single point]"
Cc1nn(Cc2ccc(Cl)cc2Cl)c(C)c1NC(=O)NC12CC3CC(CC(C3)C1)C2,"12.6 µM [rising, single point]",
Cc1ccc(OC(C)C(=O)N/N=C/c2ccccn2)cc1 (configuration not stated),,"7.94 µM [falling, partial curve, poor fit]"
CCC(C)NC(=O)CSc1nc2cc3c(cc2c(=O)n1Cc1ccc(C(=O)NCCc2ccc(OC)c(OC)c2)cc1)OCO3 (configuration not stated),"3.16 µM [falling, partial curve, poor fit]","2.51 µM [falling, full curve, poor fit]"
O=C(OCC#CCSc1nnc(-c2ccc(Br)cc2)o1)c1ccco1,"25.1 µM [rising, single point]","35.5 µM [rising, single point]"
CCN1C(=O)CC(N2CCN(c3ccc(C(=O)c4ccccc4)cc3)CC2)C1=O (configuration not stated),,"20 µM [rising, partial curve, poor fit]"
CC(=O)c1cc(-c2ccccc2)n(CC(=O)NCc2cccs2)c1C,"11.2 µM [rising, single point]",
Cc1cccc(N2CCN(C(=O)C3CCN(c4ncnc5c4nc4n5CCCCC4)CC3)CC2)c1C,"10 µM [falling, partial curve]","11.2 µM [falling, partial curve]"
